According to patent US9688624B2, “DP2 antagonist and uses thereof” (Brickell Biotech, Inc., priority 2010, dated 2017):
At least one compound was matched to its structure with a doubt left.

By UniProt entry, the sequences of proteins in these tests, tags left out. Where a name states a change or a piece, a line headed by the entry shows the natural chain unless it says otherwise.
UniProt Q9Y5Y4: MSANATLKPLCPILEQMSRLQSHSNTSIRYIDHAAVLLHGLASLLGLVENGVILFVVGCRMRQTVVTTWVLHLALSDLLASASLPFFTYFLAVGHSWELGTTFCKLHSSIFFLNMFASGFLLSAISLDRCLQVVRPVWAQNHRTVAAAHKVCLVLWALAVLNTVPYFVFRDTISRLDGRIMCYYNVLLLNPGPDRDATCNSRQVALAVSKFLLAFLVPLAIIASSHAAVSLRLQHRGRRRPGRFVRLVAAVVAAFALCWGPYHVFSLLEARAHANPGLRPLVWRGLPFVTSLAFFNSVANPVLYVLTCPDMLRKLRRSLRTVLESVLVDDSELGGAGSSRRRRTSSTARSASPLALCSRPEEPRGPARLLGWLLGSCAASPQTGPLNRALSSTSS

Experiments:
[1] = Gravimetric vapour sorption (GVS); assay type: physicochemical; conditions: 25° C.
Method: Example 5: Gravimetric Vapour Sorption (GVS)
Sorption isotherms were obtained using a SMS DVS Intrinsic moisture sorption analyzer, controlled by SMS Analysis Suite software. The sample temperature was maintained at 25° C. by the instrument controls. The humidity was controlled by mixing streams of dry and wet nitrogen, with a total flow rate of 200 ml·min-1. The relative humidity was measured by a calibrated Rotronic probe (dynamic range of 1.0-100% RH), located near the sample. The weight change, (mass relaxation) of the sample as a function of % RH was constantly monitored by the microbalance (accuracy ±0.005 mg). Typically 5-20 mg of sample was placed in a tared mesh stainless steel basket under ambient conditions. The sample was loaded and unloaded at 40% RH and 25° C. (typical room conditions). A moisture sorption isotherm was performed as outlined below (2 scans giving 1 complete cycle). The standard isotherm was performed at 25° C. at 10% RH intervals over a 0.5-90% RH range

[2] = Thermodynamic aqueous solubility; assay type: physicochemical; conditions: for pH of Unfiltered Saturated solution: listed as Compound 1 Pattern 1
Method: Example 6: Thermodynamic Aqueous Solubility
Aqueous solubility was determined by suspending sufficient compound in water to give a maximum final concentration of ≧20 mg·ml-1 of the parent free-form of the compound. The suspension was equilibrated at 25° C. for 24 hours then the pH was measured. The suspension was then filtered through a glass fibre C filter into a 96 well plate unless stated otherwise. The filtrate was then diluted by a factor of 101. Quantitation was by HPLC with reference to a standard solution of approximately 0.25 mg·ml^−1 in DMSO. Different volumes of the standard, diluted and undiluted sample solutions were injected. The solubility was calculated using the peak areas determined by integration of the peak found at the same retention time as the principal peak in the standard injection.
Analysis was performed on an Agilent HP1100 series system equipped with a diode array detector and using ChemStation software vB.02.01-SR1.

[3] = molecular target: recombinant human CRTH2 receptor (Homo sapiens (Human), UniProt Q9Y5Y4); experiment: In vitro membrane GTPγS binding assay; assay type: biochemical; conditions: compound on its own, concentrations up to 100 μM
Method: Example 16: In Vitro GTPγS Binding Assay
The ability of Compound 1 to inhibit binding of GTP to DP2 is assessed via a membrane GTPγS assay. CHO cells stably expressing the recombinant human CRTH2 receptor are resuspended in 10 mM Hepes, 7.4 containing 1 mM DTT, lysed and centrifuged at 75,000×g to pellet the membranes. The membranes are resuspended in 10 mM Hepes, 7.4 containing 1 mM DTT and 10% glycerol. Membranes (˜12.5 μg per well) are incubated in 96-well plates with 0.05 nM [^35S]-GTPγS, 80 nM PGD2, 5 μM GDP, and Compound 1 in Assay Buffer (50 mM Hepes, pH 7.4, 100 mM NaCl, 5 mM MgCl2 and 0.2% human serum albumin) for 60 minutes at 30° C. The reactions are terminated by rapid filtration through Whatman GF/B glass fibre filter plates. The filter plates are washed 3 times with 1 ml cold Assay Buffer and dried. Scintillant is then added to the plates and the radioactivity retained on the filters is determined on a Packard TopCount (Perkin Elmer). Specific binding is determined as total radioactive binding minus non-specific binding in the […] of the ligand (80 nM PGD2). IC50s were determined using Graphpad prism analysis of drug titration curves.

COc1ccc(CC(=O)O)cc1Oc1ccc(NC(=O)C(C)(C)C)cc1CSC(C)(C)C [Compound 1, 2-(3-(2-((tert-butylthio)methyl)-4-(2,2-dimethyl-propionylamino)phenoxy)-4-methoxyphenyl)acetic acid]
hygroscopicity (GVS observation) ([1]; listed as Pattern 1 of Compound 1): hygroscopic | GVS mass change ([1]; between 0-90% R.H.): more than 12 % w/w | pH of Unfiltered Saturated solution ([2]; test solvent pH 1.5): 2.04 | pH of Unfiltered Saturated solution ([2]; test solvent pH 4.0): 4.23 | pH of Unfiltered Saturated solution ([2]; test solvent pH 5.0): 5.23 | pH of Unfiltered Saturated solution ([2]; test solvent pH 6.5): 6.72 | pH of Unfiltered Saturated solution ([2]; test solvent pH 7.4): 7.63 | pH of unfiltered solution ([2]; water, listed as Pattern 1 of Compound 1): 7.92 | agonist activity at the DP2 receptor in the GTP binding assay [3]: no agonist activity
